Earlier results as cited in US20200230141A1, “BI-LAYER PHARMACEUTICAL TABLET FORMULATION” (ViiV Healthcare Company, priority 2017, published 2020).
The name of at least one read-out is uncertain.

Conditions: typical physiologic conditions

C[C@@H]1CCO[C@H]2Cn3cc(C(=O)NCc4ccc(F)cc4F)c(=O)c(O)c3C(=O)N12 [Dolutegravir, (4R,12aS)—N-[(2,4-difluorophenyl)methyl]-7-hydroxy-4-methyl-6,8-dioxo-3,4,12,12a-tetrahydro-2H-pyrido[5,6]pyrazino[2,6-b][1,3]oxazine-9-carboxamide]
permeability: only slightly soluble and permeable
